Test results as given in PMC5805371.

Amino acid sequences for entries named in this document (tags omitted). A change or cut given only in a name is not applied to a line headed by its entry.
UniProt Q92973: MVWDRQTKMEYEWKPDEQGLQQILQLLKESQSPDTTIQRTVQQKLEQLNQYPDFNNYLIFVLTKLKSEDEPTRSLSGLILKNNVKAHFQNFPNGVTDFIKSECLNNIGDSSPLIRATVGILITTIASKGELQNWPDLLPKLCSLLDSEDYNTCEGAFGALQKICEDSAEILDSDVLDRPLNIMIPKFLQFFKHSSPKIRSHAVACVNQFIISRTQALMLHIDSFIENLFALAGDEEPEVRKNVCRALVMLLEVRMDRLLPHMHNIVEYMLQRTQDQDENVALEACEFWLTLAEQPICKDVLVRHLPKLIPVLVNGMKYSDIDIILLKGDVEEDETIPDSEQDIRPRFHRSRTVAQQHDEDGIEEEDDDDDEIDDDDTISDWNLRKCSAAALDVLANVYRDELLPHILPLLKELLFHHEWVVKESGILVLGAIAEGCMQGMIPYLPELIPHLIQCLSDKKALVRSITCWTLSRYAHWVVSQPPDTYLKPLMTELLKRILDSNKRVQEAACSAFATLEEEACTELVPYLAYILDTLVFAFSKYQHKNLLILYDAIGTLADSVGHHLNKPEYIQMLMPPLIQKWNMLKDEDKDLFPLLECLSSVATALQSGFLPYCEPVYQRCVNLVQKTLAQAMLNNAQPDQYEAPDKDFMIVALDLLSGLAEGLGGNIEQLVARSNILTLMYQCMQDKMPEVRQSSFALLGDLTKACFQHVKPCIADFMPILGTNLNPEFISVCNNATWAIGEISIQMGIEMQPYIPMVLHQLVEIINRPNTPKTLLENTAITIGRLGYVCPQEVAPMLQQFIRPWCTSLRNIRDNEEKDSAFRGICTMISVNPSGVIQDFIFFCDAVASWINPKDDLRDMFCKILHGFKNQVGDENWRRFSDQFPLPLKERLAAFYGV
UniProt O15534: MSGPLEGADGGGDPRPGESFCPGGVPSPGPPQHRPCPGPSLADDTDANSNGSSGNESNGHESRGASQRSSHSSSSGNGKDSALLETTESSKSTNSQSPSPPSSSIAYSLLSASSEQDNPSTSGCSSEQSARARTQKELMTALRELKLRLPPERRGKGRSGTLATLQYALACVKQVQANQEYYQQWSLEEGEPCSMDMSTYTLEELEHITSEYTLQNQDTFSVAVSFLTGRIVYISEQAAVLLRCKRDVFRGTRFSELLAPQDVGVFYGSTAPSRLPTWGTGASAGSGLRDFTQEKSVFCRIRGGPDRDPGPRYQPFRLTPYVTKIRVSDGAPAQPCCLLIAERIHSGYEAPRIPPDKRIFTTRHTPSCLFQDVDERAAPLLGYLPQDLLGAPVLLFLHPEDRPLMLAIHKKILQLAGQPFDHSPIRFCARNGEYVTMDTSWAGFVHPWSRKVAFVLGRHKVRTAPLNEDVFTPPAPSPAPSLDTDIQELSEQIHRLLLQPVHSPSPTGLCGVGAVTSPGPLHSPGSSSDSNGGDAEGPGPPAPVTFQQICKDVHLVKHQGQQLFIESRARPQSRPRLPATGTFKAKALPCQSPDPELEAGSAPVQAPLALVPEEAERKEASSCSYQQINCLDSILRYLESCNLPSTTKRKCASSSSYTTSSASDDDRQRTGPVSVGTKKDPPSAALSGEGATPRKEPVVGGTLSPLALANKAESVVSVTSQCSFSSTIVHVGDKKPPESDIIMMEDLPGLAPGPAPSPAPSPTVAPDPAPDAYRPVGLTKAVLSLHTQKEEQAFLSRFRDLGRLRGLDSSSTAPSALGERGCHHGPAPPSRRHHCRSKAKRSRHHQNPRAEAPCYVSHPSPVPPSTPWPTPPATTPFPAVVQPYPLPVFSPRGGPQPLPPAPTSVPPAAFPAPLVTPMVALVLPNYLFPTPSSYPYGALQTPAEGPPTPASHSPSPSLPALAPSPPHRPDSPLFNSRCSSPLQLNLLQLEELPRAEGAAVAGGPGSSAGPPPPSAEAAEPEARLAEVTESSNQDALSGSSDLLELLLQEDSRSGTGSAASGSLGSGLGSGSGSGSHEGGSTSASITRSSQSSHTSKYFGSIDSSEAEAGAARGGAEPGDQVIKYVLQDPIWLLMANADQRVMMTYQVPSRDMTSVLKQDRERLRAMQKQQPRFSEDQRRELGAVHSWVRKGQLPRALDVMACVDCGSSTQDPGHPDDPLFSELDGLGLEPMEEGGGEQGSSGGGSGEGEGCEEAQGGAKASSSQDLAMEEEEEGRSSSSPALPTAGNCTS

Biological target: MYC-tagged TNPO1 (UniProt Q92973)
Test: co-IP; luciferase-based read-out: HEK293 cells co-expressing PER1/2-Luc and MYC-TNPO1 (anti-MYC IP) or PER1/2-V5 and TNPO1-Luc (anti-V5 IP), lysed in PKB buffer without protease and phosphatase inhibitors, agarose G+ beads, 4°C, washed with ice cold PBS; luminescence counts relative to normal mouse IgG control IPs; also done with 200 μM H2O2 (higher signals for PER1, not PER2)

binding: no binding
Substance: PER1_(PY/Cys_mut)-LUCIFERASE (from UniProt O15534)

Results are given in words; binding and its absence hold for the method and conditions named. Binding seen in cells or lysates may run through a third protein.
